Values from PubChem BioAssay AID1259308 (NCATS, 2017).

- Purpose: 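Knock-downs that increase output of a recombinant reporter protein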 (primary screen)
- Cells: human HEK293 embryonic kidney cells stably expressing firefly luciferase (HEK-CMV-Luc2-Hygro)
- Reagents: single siRNA against human genes, 0.8 pmol siRNA per well
- Duration: 72 h
- Measurement: 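Reporter luminescence and viable-cell signal on separate replicate plates, given as percent of non-targeting control and median/MAD z-scores, plus per-cell luciferase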
- Reading the numbers: total luciferase, z-score and total luciferase, % of control: higher = more reporter protein produced; luciferase per cell, z-score: higher = more reporter output per viable cell; viable cells, % of control: higher = more viable cells
- Rule for the call: 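An siRNA counts as active if its total luciferase robust z-score exceeds 3; genes with two or more such siRNAs out of three were retested with fresh siRNAs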
- Calls: active = raised luciferase; inactive = no rise
Shown is an unselected part of about 59,000 reagents tested. About 1,510 of all reagents (2.6%) were called active. 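Calls use total luciferase alone and ignore viability, so some active siRNAs may act by altering cell number.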 A number with no mark means an inactive call. Reagents against one gene are numbered here.

Gene	siRNA no.	total luciferase, z-score	total luciferase, % of control	luciferase per cell, z-score	viable cells, % of control
ZNF479	1	-1.25	57.1	-0.842	79.6
ZNF479	2	-0.347	75	-0.689	100
ZNF479	3	-0.724	67.5	-1.08	100
MIR550A3HG	1	0.739	96.6	0.922	84.7
MIR550A3HG	2	2.5	132	1.42	101
MIR550A3HG	3	-0.202	77.9	-1.2	119
PRKACA	1	-0.281	76.3	-0.141	88.5
PRKACA	2	-2.11	39.9	-2.57	87.6
PRKACA	3	3.02 (active)	142	2.19	89
CEACAM16	1	0.259	87	0.392	87.7
CEACAM16	2	0.00374	82	0.258	85.6
CEACAM16	3	-0.532	71.3	-0.387	88.2
PPIL6	1	-1.59	50.2	-0.748	68.3
PPIL6	2	0.0168	82.2	0.216	86.8
PPIL6	3	-0.657	68.8	-0.954	98.9
DDX4	1	-0.581	70.3	-1.09	105
DDX4	2	-0.267	76.6	-0.106	88
DDX4	3	-0.294	76	0.457	75.3
KCNK18	1	-0.661	68.7	-0.623	90.5
KCNK18	2	0.169	85.2	1.29	67.7
KCNK18	3	-0.135	79.2	-0.78	109
CASKIN2	1	-1.38	54.5	-0.441	68.4
CASKIN2	2	0.577	93.4	0.593	89.3
CASKIN2	3	0.765	97.1	0.348	99
SIM2	1	-1.25	56.9	-1.51	94.6
SIM2	2	0.0246	82.4	-0.315	100
SIM2	3	-1.08	60.5	-1.34	96.1
NRARP	1	-0.462	72.7	-0.0872	83.1
NRARP	2	-0.327	75.4	-0.125	87.1
NRARP	3	1.11	104	0.665	97.4
ACBD5	1	-0.548	71	-0.89	100
ACBD5	2	-0.643	69.1	-1	101
ACBD5	3	-0.435	73.2	-0.902	104
CXCL12	1	-0.606	69.8	-0.799	96.3
CXCL12	2	-1.13	59.4	-1.16	90.1
CXCL12	3	2.46	131	0.885	116

Next part; the last 8 above are carried over.
Gene	siRNA no.	total luciferase, z-score	total luciferase, % of control	luciferase per cell, z-score	viable cells, % of control
NRARP	2	-0.327	75.4	-0.125	87.1
NRARP	3	1.11	104	0.665	97.4
ACBD5	1	-0.548	71	-0.89	100
ACBD5	2	-0.643	69.1	-1	101
ACBD5	3	-0.435	73.2	-0.902	104
CXCL12	1	-0.606	69.8	-0.799	96.3
CXCL12	2	-1.13	59.4	-1.16	90.1
CXCL12	3	2.46	131	0.885	116
ACKR1	1	-0.377	74.4	-0.977	108
ACKR1	2	-0.787	66.2	-0.546	85.4
ACKR1	3	-0.575	70.4	-0.736	95.6
RFC3	1	0.0771	83.4	-0.549	108
RFC3	2	1.51	112	0.113	121
RFC3	3	1.09	104	1.16	85.4
DEFA1	1	0.114	84.1	0.85	75.2
DEFA1	2	0.139	84.7	2.21	52.9
DEFA1	3	-0.496	72	0.586	69
TMUB1	1	-2.78	26.7	-2.27	54.1
TMUB1	2	0.968	101	1.04	85.9
TMUB1	3	-2.65	29.3	-2.8	68.4
PCDHGA1	1	-1.36	54.8	-1.57	92.5
PCDHGA1	2	0.224	86.4	-0.204	102
PCDHGA1	3	-1.95	43	-2.25	86.8
CCL11	1	-0.096	80	-0.367	98.4
CCL11	2	-0.767	66.6	-1.33	106
CCL11	3	-0.665	68.7	-0.884	96.8
CDC27P6	1	0.308	88	-0.22	104
CDC27P6	2	0.725	96.3	0.521	93.8
CDC27P6	3	-0.976	62.5	-0.255	74.7
SAC3D1	1	0.0708	83.3	0.199	88.3
SAC3D1	2	0.284	87.5	-0.32	106
SAC3D1	3	1.8	118	1.48	89.2
PTCHD3P1	1	0.194	85.7	0.318	88.1
PTCHD3P1	2	-0.342	75.1	0.423	75.1
PTCHD3P1	3	0.471	91.2	-0.0167	102
BLTP1	1	-0.319	75.5	-0.547	97.5
BLTP1	2	-1.11	59.7	-1.61	102
BLTP1	3	-1.47	52.6	-2.41	111
RBP1	1	-1.8	46.1	-2.98	113
RBP1	2	0.593	93.7	-0.00784	105
RBP1	3	-0.351	74.9	-0.481	95
PSMB3	1	-0.227	77.4	1.12	64.3
PSMB3	2	-0.222	77.5	0.526	75.4
PSMB3	3	0.515	92.1	-0.0619	105
CORO6	1	0.157	85	-0.29	103
CORO6	2	2.13	124	1.39	96.3
CORO6	3	-0.165	78.6	-0.403	97.7
